In patent publication US10513547B2, “Peptides and combination of peptides and scaffolds thereof for use in immunotherapy against colorectal carcinoma (CRC) and other cancers” (Immatics Biotechnologies GmbH, priority 2015, dated 2019):

Test system: HLA molecules from shock-frozen tissue samples (CRC, other tumors, normal tissues)
Assay: Identification and label-free relative LC-MS quantitation of HLA-presented tumor associated peptides (presentation profiles, XPRESIDENT)
Set-up: species or system human; key to Peptide Presentation (presentation score): very highly over-presented on tumors compared to a panel of normal tissues (+++); highly over-presented on tumors compared to a panel of normal tissues (++); over-presented on tumors compared to a panel of normal tissues (+)
Settings: for Additional Entities (additional tumor types on which the peptide was found): over-presentation on more than 5% of the measured tumor samples, or presentation on more than 5% of the measured tumor samples with ratio of geometric means tumor vs normal tissues larger than 3; for Peptide Presentation (presentation score): over-presentation on tumors compared to a panel of normal tissues; for Other relevant organs/diseases: additional tumor types: over-presented on more than 5% of measured tumor samples, or presented on more than 5% with ratio of geometric means tumor vs normal larger than 3

| Substance | Additional Entities (additional tumor types on which the peptide was found) | Peptide Presentation (presentation score) | Other relevant organs/diseases | also measured |
| --- | --- | --- | --- | --- |
| 23 (FLDANGHFV; listed as Homo sapiens) [compound 23] | GC, Esophageal Cancer, Gallbladder Cancer, Bile Duct Cancer | + |  |  |
| 117 (TLQPVDNSTISL; listed as Homo sapiens) [compound 117] | Uterine Cancer, Gallbladder Cancer, Bile Duct Cancer |  | Lung, Kidney, Liver, Pancreas, Esophagus |  |
| 65 (FGAPGIISA; listed as Homo sapiens) [compound 65] |  | +++ | Stomach, Esophagus |  |
| 45 (ALAELLHGA; listed as Homo sapiens) [compound 45] | Melanoma, Urinary bladder cancer, Uterine Cancer, Gallbladder Cancer, Bile Duct Cancer | +++ | Lung, Kidney, Brain, Liver, Prostate, Breast, Ovary |  |
| 243 (TLMDMRLSQV; listed as Homo sapiens) [compound 243] |  | + | Lung, Kidney, Brain, Liver, Prostate, Ovary |  |
| 43 (TLDAAQPRV; listed as Homo sapiens) [compound 43] | PrC, Esophageal Cancer | ++ |  |  |
| 74 (YLMGFLHAV; listed as Homo sapiens) [compound 74] | BRCA, Urinary bladder cancer | ++ | Ovary |  |
| 73 (YLFDIAVSM; listed as Homo sapiens) [compound 73] |  | ++ |  |  |
| 227 (LTAPPEALLMV; listed as Homo sapiens) [compound 227] |  | ++ | Lung, Kidney, Brain, Liver, Pancreas, Leukocytes, Ovary, Esophagus |  |
| 205 (RLHDENILL; listed as Homo sapiens) [compound 205] |  | +++ | Lung, Kidney, Brain, Liver, Pancreas, Prostate, Ovary, Esophagus |  |
| 88 (KLDIKVETV; listed as Homo sapiens) [compound 88] | BRCA, Urinary bladder cancer | + | Lung, Kidney, Liver, Melanoma, Ovary, Esophagus |  |
| 143 (KLSDVWKEL; listed as Homo sapiens) [compound 143] | Gallbladder Cancer, Bile Duct Cancer | +++ | Lung |  |
| 171 (RLQETEGMVAV; listed as Homo sapiens) [compound 171] | Melanoma, OC | + | Liver, Leukocytes, MCC |  |
| 178 (YLFREPATI; listed as Homo sapiens) [compound 178] | BRCA, Urinary bladder cancer, Uterine Cancer, PC | + | Lung, Brain, Liver, Prostate, Melanoma, Ovary, Esophagus |  |
| 194 (SLYKGLLSV; listed as Homo sapiens) [compound 194] |  | +++ | Lung, Kidney, Brain, Liver, Ovary, Esophagus |  |
| SEQ ID NO.: 138 (KQFEGTVEI; listed as Homo sapiens) |  |  |  | additionally detected on brain cancers (positive/measured samples) (brain cancers): 1/28; additionally detected on esophageal cancers (positive/measured samples) (esophageal cancers): 1/15; additionally detected on lung cancers (positive/measured samples) (lung cancers): 3/91; additionally detected on stomach cancers (positive/measured samples) (stomach cancers): 1/45 |
| 170 (ALAGGITMV; listed as Homo sapiens) [compound 170] | CLL, Uterine Cancer, Gallbladder Cancer, Bile Duct Cancer, AML, NHL | ++ | Lung, Kidney, Liver, Pancreas, Melanoma, Esophagus |  |
| 248 (ALYGDIDAV; listed as Homo sapiens) [compound 248] |  |  | Lung, Brain, Pancreas, Esophagus |  |
| 201 (GSFNGALAAV; listed as Homo sapiens) [compound 201] |  | +++ | Brain, Pancreas |  |
| 121 (SLAPNIISQL; listed as Homo sapiens) [compound 121] | AML |  | Liver, Leukocytes |  |
| 97 (ALWWGVVTV; listed as Homo sapiens) [compound 97] | CLL | ++ |  |  |
| 36 (GLLESPSIFNFTA; listed as Homo sapiens) [compound 36] | BRCA | +++ |  |  |

| Substance | Additional Entities (additional tumor types on which the peptide was found) | Peptide Presentation (presentation score) | Other relevant organs/diseases | also measured |
| --- | --- | --- | --- | --- |
| 59 (LLTDNVVKL; listed as Homo sapiens) [compound 59] | Melanoma, AML, NHL | + | Lung, Liver, Esophagus |  |
| 260 (ALLAEGITWV; listed as Homo sapiens) [compound 260] |  |  | Liver |  |
| 166 (GLLEARGILGL; listed as Homo sapiens) [compound 166] | Urinary bladder cancer, AML, NHL | + | Liver |  |
| 189 (AISEVIGKITA; listed as Homo sapiens) [compound 189] | Gallbladder Cancer, Bile Duct Cancer, PC |  | Ovary |  |
| 180 (NLLEIAPHL; listed as Homo sapiens) [compound 180] | NSCLC, Melanoma, OC, Esophageal Cancer, Urinary bladder cancer, Uterine Cancer, Gallbladder Cancer, Bile Duct Cancer, AML | ++ | Brain, Leukocytes, Breast |  |
| 103 (FLFGYPKRL; listed as Homo sapiens) [compound 103] | NSCLC, SCLC, Melanoma, Urinary bladder cancer, Uterine Cancer, AML | + | Brain, Liver, Prostate |  |
| 168 (GLIRFPLMTI; listed as Homo sapiens) [compound 168] | CLL, Melanoma, Urinary bladder cancer, Uterine Cancer, AML | ++ | Lung, Kidney, Liver |  |
| 264 (RLLDVLAPLV; listed as Homo sapiens) [compound 264] |  |  | Kidney, Liver |  |
| 236 (KMSELQTYV; listed as Homo sapiens) [compound 236] |  | + | Lung, Pancreas, Melanoma, Ovary, Esophagus |  |
| 91 (TVDVATPSV; listed as Homo sapiens) [compound 91] | CLL |  | Breast, Ovary |  |
| 63 (KLFSILSTV; listed as Homo sapiens) [compound 63] | SCLC, Melanoma, Urinary bladder cancer, Uterine Cancer, Gallbladder Cancer, Bile Duct Cancer, NHL | + | Brain, Liver, Prostate, Ovary, Esophagus |  |
| 173 (KLGDLMVLL; listed as Homo sapiens) [compound 173] | Melanoma, AML, NHL | + | Leukocytes |  |
| 83 (LTIEDGIFEV; listed as Homo sapiens) [compound 83] | NHL | + | Kidney, Leukocytes, MCC, Melanoma, Esophagus |  |
| 265 (LLDKKIGV; listed as Homo sapiens) [compound 265] |  |  | Kidney, Ovary, Esophagus |  |
| 148 (RLLENMTEVV; listed as Homo sapiens) [compound 148] | CLL, OC, Urinary bladder cancer, Uterine Cancer, NHL | ++ | Liver |  |
| 18 (FLSSLKGGLL; listed as Homo sapiens) [compound 18] | Melanoma, Urinary bladder cancer, Uterine Cancer, AML | +++ | Ovary |  |
| 78 (ALDPELLLL; listed as Homo sapiens) [compound 78] | AML | + |  |  |
| 82 (QLYEEPDTKL; listed as Homo sapiens) [compound 82] | SCLC, Melanoma, Urinary bladder cancer, Gallbladder Cancer, Bile Duct Cancer, AML, NHL | ++ | Leukocytes, Esophagus |  |
| 116 (LVYQFVHPI; listed as Homo sapiens) [compound 116] | Urinary bladder cancer, Uterine Cancer, Gallbladder Cancer, Bile Duct Cancer |  | Pancreas, Prostate, Breast, Ovary |  |
| 16 (VLVDQSWVL; listed as Homo sapiens) [compound 16] | Esophageal Cancer, Urinary bladder cancer | +++ | Ovary |  |
| 211 (SLFGKKYIL; listed as Homo sapiens) [compound 211] |  | +++ | Kidney |  |
